Paper doi:10.1101/2024.08.20.608744
No constants are given. Whether binding was seen depends on the method and setting. A result given as binding can be weak or reduced; the word gives no strength.

Chains of the proteins cited; added tags and fusions are not shown. Lines headed by an entry give the natural chain unless they say otherwise; changes in a name come on top.
UniProt A0A644F2H1: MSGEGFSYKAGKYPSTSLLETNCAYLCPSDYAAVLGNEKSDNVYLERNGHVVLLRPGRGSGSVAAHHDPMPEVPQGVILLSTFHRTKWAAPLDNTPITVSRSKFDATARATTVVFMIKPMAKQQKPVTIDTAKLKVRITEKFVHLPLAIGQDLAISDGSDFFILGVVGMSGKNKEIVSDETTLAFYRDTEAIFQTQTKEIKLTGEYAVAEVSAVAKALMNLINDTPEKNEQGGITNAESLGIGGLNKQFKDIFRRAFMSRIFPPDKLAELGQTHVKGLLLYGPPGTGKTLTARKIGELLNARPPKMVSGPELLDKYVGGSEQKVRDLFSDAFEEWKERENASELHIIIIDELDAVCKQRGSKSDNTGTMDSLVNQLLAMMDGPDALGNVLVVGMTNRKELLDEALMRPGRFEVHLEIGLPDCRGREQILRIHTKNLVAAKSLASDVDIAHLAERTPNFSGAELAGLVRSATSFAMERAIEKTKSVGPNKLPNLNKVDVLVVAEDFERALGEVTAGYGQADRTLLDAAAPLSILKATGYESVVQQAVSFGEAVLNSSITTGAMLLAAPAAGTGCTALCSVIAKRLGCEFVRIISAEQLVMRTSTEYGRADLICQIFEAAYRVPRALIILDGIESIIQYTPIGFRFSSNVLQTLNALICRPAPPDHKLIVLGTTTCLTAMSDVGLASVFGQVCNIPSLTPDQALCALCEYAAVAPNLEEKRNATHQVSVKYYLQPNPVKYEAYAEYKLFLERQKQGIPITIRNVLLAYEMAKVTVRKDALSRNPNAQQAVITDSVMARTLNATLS

Legend:
Assay in all cases: two-hybrid
[1] = biological target: GlNSF_(114776) (Giardia lamblia (strain ATCC 50803/ WB clone C6))
[2] = biological target: Glα-SNAP_(10856) (Giardia lamblia)
[3] = biological target: Glα-SNAP_(17224) (Giardia lamblia) (UniProt A8B9B7)
[4] = biological target: GlNSF_(112681) (Giardia lamblia (strain ATCC 50803/ WB clone C6))

For “GlNSF_(112681) (from UniProt A0A644F1R1)”, the binding [1] was “binds”, the binding [2] was “no binding” and the binding [3] was “no binding”.

With “GlNSF_(114776) (from UniProt A0A644F2H1)” the binding [4] was “binds”, the binding [2] was “binds” and the binding [3] was “binds”.
